{"source": "patent US20090318504A1", "about": "“Use of GAL3 receptor antagonists for the treatment of depression and/or anxiety and compounds useful in such methods” (priority 2001, published 2009)", "key": {"male Sprague-Dawley rats [1]": {"system": "male Sprague-Dawley rats", "assay": "Rat Forced Swim Test (FST)", "format": "in vivo", "settings": "conclusion of the study"}, "male Sprague-Dawley rats [2]": {"system": "male Sprague-Dawley rats", "assay": "Rat Social Interaction Test (SIT)", "format": "in vivo", "settings": "conclusion of the study"}}, "note": "At least one structure is not confirmed: it was looked up by name or label, or the drawing left a doubt.", "data": [{"smiles": "O=C1C(=Nc2cccc(C(F)(F)F)c2)c2ccccc2N1c1ccccc1", "note": "[Example 92, 1-PHENYL-3-[[3-(TRIFLUOROMETHYL)PHENYL]IMINO]-1,3-DIHYDRO-2H-INDOL-2-ONE]", "values": [{"measurement": "Overall profile in the Forced Swim Test", "setting": "male Sprague-Dawley rats [1]", "result": "has antidepressant-like properties"}, {"measurement": "Overall profile in the Social Interaction Test", "setting": "male Sprague-Dawley rats [2]", "result": "has the profile of an anxiolytic"}]}]}
